Some entries share one result that the patent states for a list of compounds.
Tested on: acromelic acid-induced allodynia
Experiment: Evaluation of allodynia-inhibitory activity (intrathecal co-administration with acromelic acid)
Format: in vivo
Conditions: 5 μl solution with 1×10^−15 gram of acromelic acid plus pyrrolidine derivative, ddY-mouse male, allodynia scored 0 to 2 every 5 minutes for 50 minutes, percent of control, FIGS. 1-3
Protocol: In the evaluation, according to the method of Hylden & Wilcox (Hylden, J. L. K. and Wilcox, G. L., Intrathecal morphine in mice: a new technique, Eur. J. Pharmacol, 67 (1980) 313-316.), 5 μl of a solution containing 1×10^−15 gram of acromelic acid and a different dose of pyrrolidine derivative was administrated to ddY-mouse (male, weight 22±2 g) under an unanesthetized condition. One experimental group consisted of 6 mice, and a solution containing 1×10^−15 gram of acromelic acid (5 μl ) was administrated in control groups. After the compound was intrathecally administered, allodynia was assessed once every 5 minutes for 50 minutes by scoring the response in rank order from 0 to 2, and expressed as a percent of the values in control groups, similarly to the method of Yaksh & Harty et al. (Yaksh, T. L. and Harty, G. J., Pharmacology of the allodynia in rats evoked by high dose intrathecal morphine, J. Pharmacol. Exp. Ther., 244 (1988) 501-507.). Allodynic response was ranked as follows: 0, no response; 1, mild squeaking with attempts to move away from the stroking probe; 2, vigorous squeaking evoked by the stroking probe, biting at the probe or strong efforts to escape.

**Q.** For `CC(=O)Nc1ccc(O[C@@H]2CN[C@H](C(=O)O)[C@H]2CC(=O)O)cc1` [compound 2], which allodynia-inhibitory activity is on record?
**A.** do not exhibit any allodynia-inhibitory activity

**Q.** `NC(=O)c1ccc(OC2CN[C@H](C(=O)O)[C@H]2CC(=O)O)cc1` (stereo partly shown) [compound 3] was tested. Which allodynia-inhibitory activity did it give?
**A.** do not exhibit any allodynia-inhibitory activity

**Q.** How did the allodynia-inhibitory activity turn out when `O=C(O)C[C@@H]1[C@@H](C(=O)O)NC[C@H]1Oc1ccccc1` [compound 1] was run?
**A.** do not exhibit any allodynia-inhibitory activity

**Q.** For `O=C(O)C[C@H]1[C@@H](Sc2ccc(C(=O)O)cc2)CN[C@@H]1C(=O)O` [Comparative Example 4], which allodynia-inhibitory activity is on record?
**A.** do not exhibit any allodynia-inhibitory activity
